{"source": "PubChem BioAssay AID1347423", "about": "(Functional Genomics Laboratory (NCATS/FGL), 2020)", "note": "In all, about 52,000 sequences went through this assay and about 210 (0.4%) were called active.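 The calls were made as follows: active = gene whose silencing raises cell survival under the drug, median off-target-corrected z-score across its silencing RNAs 2 or more; inactive = the rest.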 This is one part of the list."}
{"assay": "Resistance to Poly (ADP-Ribose) Polymerase inhibitor: Gene Identification via Genome-wide siRNA Screen", "conditions": "mouse BRCA2 R2336H ES cells, olaparib, CellTiter-Glo viability; hits give high values", "method_in_brief": "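Genome-wide siRNA screen (3 siRNAs/gene, 20 nM) in mouse ES cells carrying hypomorphic BRCA2 R2336H; olaparib 500 nM added 48 h post-transfection, CellTiter-Glo viability 72 h later. Normalized to plate-median negative control; MAD z-scores, gene median, seed-adjusted.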"}
{"sequence": "GGAAAGACCUCUUGAUAGGTT against 3110043L15Rik", "z-score": "inactive: 0.557"}
{"sequence": "GGUAACAAACCGAAAGUAUTT against Polr3k", "z-score": "inactive: 0.914"}
{"sequence": "CCAGAUUCAGUACCUCUAGTT against Kctd3", "z-score": "inactive: 0.214"}
{"sequence": "GGUUUCAUUUUUCGAGGAGTT against Cit", "z-score": "inactive: 0.177"}
{"sequence": "GCCGUACUUCGUCAAGCUATT against Ung", "z-score": "inactive: -0.787"}
{"sequence": "CGCUUUAGUGACUUUCAAATT against BC019776", "z-score": "inactive: -0.462"}
{"sequence": "GGAUCUGGCGGUUACUAAGTT against Gm867", "z-score": "inactive: -0.0373"}
{"sequence": "GGACACCAUGCCACAGACATT against Hlx1", "z-score": "inactive: 0.856"}
{"sequence": "GGUCCUAGGAGACUUUUUGTT against Dnahc11", "z-score": "inactive: -0.133"}
{"sequence": "GGAAAUGCUCAAAGAUUUUTT against Cenpe", "z-score": "inactive: 0.378"}
{"sequence": "GGCAGCAAAAAGGUUGAUUTT against Olfr1110", "z-score": "inactive: -0.379"}
{"sequence": "GGUCUAUCAGUGCAUCGUGTT against BC052040", "z-score": "inactive: -0.5"}
{"sequence": "GCUUCAAUGAGGAGUAUCUTT against Smpdl3b", "z-score": "inactive: -1.47"}
{"sequence": "GGAAUUUUGGAAUCACUAGTT against Ssr1", "z-score": "inactive: 0.47"}
{"sequence": "GGGACUUCAUUUUAUUCUGTT against Zcwcc2", "z-score": "inactive: 0.363"}
{"sequence": "GGCUUGACUGAAUAAUAAUTT against F730108M23Rik", "z-score": "inactive: 0.0718"}
{"sequence": "GCUGAAAGAAUUCGUGGACTT against Phf2", "z-score": "inactive: -0.0193"}
{"sequence": "CCGUGGACAUGAAAACACCTT against Ly6g6e", "z-score": "inactive: 0.522"}
{"sequence": "GCUUUUGAAGCGACUGGGATT against Frk", "z-score": "inactive: -0.306"}
{"sequence": "CGACCAUUGUGACUGGAGATT against Olfr782", "z-score": "inactive: 0.624"}
{"sequence": "CCUGAGUGUGGAGUGUUUCTT against Olfr444", "z-score": "inactive: -0.711"}
{"sequence": "GGAAUCUAGAAGAAUCAUUTT against Gnao1", "z-score": "inactive: 1.21"}
{"sequence": "GGUUACAAAAGAACCAGAUTT against Pik3c2g", "z-score": "inactive: -0.479"}
{"sequence": "GGAAAAGGUGGAAAAGUGATT against Ddx18", "z-score": "inactive: -1.37"}
{"sequence": "GGUGACUCUACUGGAUUUUTT against Adck4", "z-score": "inactive: -0.199"}
{"sequence": "GCCGGUUUAUAGAAGAAGATT against D6Wsu163e", "z-score": "inactive: -0.021"}
{"sequence": "GGCCUCCAUAUCUAUCUAUTT against 1700123D08Rik", "z-score": "inactive: -0.0151"}
{"sequence": "CCAUAUGAUAAGCAUAAGCTT against 9530049C15Rik", "z-score": "inactive: -0.0397"}
{"sequence": "CCCUUCUCUGAUUGUCUGATT against 2310007F04Rik", "z-score": "inactive: -1.18"}
{"sequence": "GCCACAAGGUUCGGUAUUCTT against 1700028K03Rik", "z-score": "inactive: -0.41"}
{"sequence": "GGAUGGUGAAAAUCUUGAGTT against 4930504E06Rik", "z-score": "inactive: -0.215"}
{"sequence": "CCUAAGUAUCUUCUGUUGGTT against 2310016C08Rik", "z-score": "inactive: -0.24"}
{"sequence": "GGAGAAUGAGCAAAUCAAATT against 4832415H08Rik", "z-score": "inactive: -0.338"}
{"sequence": "GCUCACUUCAGGUUUACCATT against Pdcd1", "z-score": "inactive: -0.426"}
{"sequence": "GGCAUUUAUGUCAAAGGAUTT against Fhl5", "z-score": "inactive: 0.272"}
{"sequence": "CCCGUCAAUACCACUUACCTT against BC023957", "z-score": "inactive: 1.89"}
{"sequence": "GGGAAGUGGAUCGUGUUCUTT against Syt8", "z-score": "inactive: -0.343"}
{"sequence": "GGGUCUUCUGGAGAUUCAGTT against Dgcr6", "z-score": "inactive: 0.364"}
{"sequence": "GCAUGUGUACCAUUUACCUTT against Prdx1", "z-score": "inactive: 0.719"}
{"sequence": "GGAGAAUCUGAUAUUGAUCTT against Cdkl2", "z-score": "inactive: 0.0565"}
{"sequence": "CGCUGAAAUAAAGACCAGATT against 2400010G15Rik", "z-score": "active: 1.99"}
{"sequence": "GCCUGAUUUUUUGUCUCUATT against Slc39a7", "z-score": "inactive: -1.19"}
{"sequence": "GCAGCUAACUCCAAGUCAGTT against Tfam", "z-score": "inactive: 0.127"}
{"sequence": "GGAUCCGUUCAGCAGAAGGTT against Olfr1045", "z-score": "inactive: 0.31"}
{"sequence": "GCGACUUGGAGAGCAUUUGTT against Trim3", "z-score": "inactive: -2"}
{"sequence": "GCACAUGUGGAUUUCCAUCTT against Olfr547", "z-score": "inactive: -0.0444"}
{"sequence": "GGAGAUGGAGAUUAACGACTT against Atp4a", "z-score": "inactive: 0.769"}
{"sequence": "CCACUACAAUGUAGCGACGTT against 9130217G22Rik", "z-score": "inactive: 0.713"}
{"sequence": "GCCAUUCUCCAUUGAGCUGTT against Pik3cd", "z-score": "inactive: -0.396"}
{"sequence": "GCCACAGGAAUACAAUGUCTT against Il3ra", "z-score": "inactive: 0.437"}
{"sequence": "GGAAACUUUCUAAAUGCUGTT against Pja1", "z-score": "inactive: 1.23"}
{"sequence": "GGUAUACAGGAUGUUAAGGTT against Pdlim4", "z-score": "inactive: 1.23"}
{"sequence": "GCGGCUUUAUUCACACUUUTT against 2700038N03Rik", "z-score": "inactive: 1.21"}
{"sequence": "GGAGACAACAACAAGACAUTT against Tbk1", "z-score": "inactive: -0.205"}
{"sequence": "GCUAAGAGUGCAGGAUUGGTT against Lhx2", "z-score": "inactive: -2"}
{"sequence": "GCUACCUACGAUGUUCAAATT against Tomm34", "z-score": "inactive: 0.825"}
{"sequence": "GGAUAAAGUCACCUUCAUCTT against Itgam", "z-score": "inactive: 0.426"}
{"sequence": "GCAGAAAGCAACACGCCCUTT against MGC91106", "z-score": "inactive: 0.689"}
{"sequence": "GGACUACUCCAGAAAGCUUTT against Wdfy3", "z-score": "inactive: 0.199"}
{"sequence": "GGAUCGGCACUGGCAUGAATT against Fhl2", "z-score": "inactive: -1.37"}
{"sequence": "GGUGAUAACUGUAUUUCAGTT against Ftsj1", "z-score": "inactive: -0.808"}
{"sequence": "GCGCAGAGAUUACCUUAAGTT against Gtf3a", "z-score": "inactive: -1.88"}
{"sequence": "GCAAGUCAGCUACAACUGUTT against D11Bwg0434e", "z-score": "inactive: 0.0907"}
{"sequence": "GGUGACCUUACCUAAUGUATT against 2810422O20Rik", "z-score": "inactive: 1.09"}
{"sequence": "GGAGAAAGAAGCUAGUGAGTT against MGC107702", "z-score": "inactive: 0.0546"}
{"sequence": "GGGUUUAUGGGCAUGUCCCTT against Adipor2", "z-score": "inactive: 0.373"}
